According to US20240115587A1, “COMBINATION THERAPIES” (Kallyope, Inc., priority 2022, published 2024):
At least one structure is not confirmed: it was looked up by name or label, or the drawing left a doubt.

Tested on: male C57BL/6J mice
Assay: Glucose excursion during oral glucose tolerance test in mice
Assay type: in vivo
Details: OGTT in mice
Protocol: The effects of GPR40 agonists of Formula (B) and a GPR119 agonist of Formula (A) alone and in combination on glucose excursion during an oral glucose tolerance test were assessed in mice. The effects of the combination of a compound of Formula (A) and compounds of Formula (B) with linagliptin (a DPP-4 inhibitor) or metformin were also assessed. Male C57BL/6J mice, approximately 10 weeks old, were acclimated to the facility and the oral dosing procedure. Mice were randomized into balanced treatment groups using body weight. Baseline glucose was assessed immediately before compound administration. […] Blood was assessed for glucose levels 20 min, 40 min, 60 min, and 120 min post D-(+)-glucose administration. The AUCs for blood glucose measures were calculated for each treatment from 0 to 120 min. Statistical analysis was performed on AUCs using one-way ANOVA versus vehicle, with Tukey's post-test.

SMILES: CC#CCn1c(N2CCC[C@@H](N)C2)nc2c1c(=O)n(Cc1nc(C)c3ccccc3n1)c(=O)n2C [linagliptin]
- post-prandial glucose excursion: suppressed post-prandial glucose excursion
